This passage reports AC50 results from PubChem BioAssay AID1487 (National Center for Advancing Translational Sciences (NCATS), 2009).

The structures appear in SMILES notation. Some of the results follow. Further columns of the screen follow, without active or inactive calls. The list favours compounds with an active or inconclusive main result. Words in brackets tell the shape of the fitted curve; partial curves, single points and poor fits give uncertain potencies.

This assay is described as follows: qHTS Assay for Modulators of Lamin A Splicing. Conditions: HeLa LMNA splicing GFP/RFP minigene ratio, 48 h. A digest of the protocol:
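S3 HeLa stable clones carrying a lamin A-EGFP splicing minigene plus DsRed2 were seeded at 600 cells/well in Opti-MEM with 2% FBS, pin-dosed and incubated 48 h at 37°C. Acumen cytometry (488 nm) gave the GFP/RFP total-intensity ratio.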
Background: qHTS replaces the single test concentration by a dilution series.

The mark [1] stands for this setting: measured here: RFP viability control channel.
[2] abbreviates: measured here: GFP splicing reporter channel.

Consider `Cc1nn(CC(=O)NCc2ccccc2F)c(C)c1[N+](=O)[O-]`, for which the half-maximal activity concentration (AC50) under setting [1] is 0.0316 µM [falling, full curve, poor fit].

For the compound `O=C(CN1CCN(CCN2C(=O)c3cccc4cccc(c34)C2=O)CC1)c1ccc(Cl)cc1`, the concentration at half-maximal activity (AC50) under setting [1] is 0.00316 µM [rising, full curve, poor fit].

In the case of `O=C(Nc1ccc(CN2CCOCC2)cc1)c1cccc(-c2cc3ccccc3oc2=O)c1`, under setting [1], the AC50 is 17.8 µM [rising, single point].

Turning to `O=C(C1CC1c1ccccc1)N1CCN(c2cccc(Cl)c2)CC1` (stereo not given), the AC50 was 20 µM [rising, partial curve, poor fit] under setting [2] and 25.1 µM [rising, single point] under setting [1].

Regarding `Nc1ccc(-n2ccnc2)cc1`, under setting [1], the concentration at half-maximal activity (AC50) is 35.5 µM [rising, single point].

As for `Cc1ccsc1C(=O)Nc1ccc(F)c([N+](=O)[O-])c1`, the concentration at half-maximal activity (AC50) under setting [1] was 14.1 µM [rising, single point].

Take `COCCCNC(=O)CSC1=Nc2ccccc2C2=NC(CC(=O)NCc3ccccc3)C(=O)N12` (stereo not given): the AC50 under setting [1] is 0.447 µM [falling, full curve, poor fit].

Regarding `CNc1nc(-c2ccc(Cl)cc2)cs1`, the concentration at half-maximal activity (AC50) under setting [2] was 12.6 µM [rising, single point].

Turning to `Cc1ccccc1NS(=O)(=O)c1ccc(OCC(=O)NCc2ccccn2)cc1`, under setting [1], the AC50 was 0.562 µM [rising, partial curve, poor fit].

For `O=C(COc1ccccc1[N+](=O)[O-])Nc1ccc(-c2nc3ccccc3s2)cc1`, the half-maximal activity concentration (AC50) runs as follows: under setting [2], 7.08 µM [falling, partial curve, poor fit]; under setting [1], 35.5 µM [falling, single point].

Take `N/C(=N\OC(=O)/C=C/c1ccccc1)c1cccnc1`: under setting [1], the AC50 was 15.8 µM [falling, single point].

As to `CCCCN=C1NN=C(c2cccc([N+](=O)[O-])c2)CS1`, the concentration at half-maximal activity (AC50) was 31.6 µM [rising, single point] under setting [2] and 28.2 µM [rising, single point] under setting [1].

Turning to `CC(=O)O[C@H]1C(=O)[C@@]2(C)[C@H]([C@H](OC(=O)c3ccccc3)[C@]3(O)C[C@H](OC(=O)[C@H](O)C(NC(=O)c4ccccc4)c4ccccc4)C(C)=C1C3(C)C)[C@]1(OC(C)=O)CO[C@@H]1C[C@@H]2O` (stereo not given in full), the AC50 is, setting by setting: under setting [2], 0.0355 µM [falling, full curve, poor fit]; under setting [1], 0.0355 µM [falling, full curve].

In the case of `O=C(OCn1ncc(Br)c(Br)c1=O)c1ccccc1Cl`, the concentration at half-maximal activity (AC50) under setting [1] is 35.5 µM [rising, single point].

For `O=C(CN1CCCN(S(=O)(=O)c2ccc(Br)s2)CC1)Nc1ccc(Cl)cc1`, the AC50 reads like this: under setting [2], 14.1 µM [rising, single point]; under setting [1], 35.5 µM [rising, single point].

On to `Cc1nc2ccccc2c(=O)n1Nc1cccc(Cl)c1`, for which the concentration at half-maximal activity (AC50) under setting [1] is 0.00316 µM [falling, full curve, poor fit].

Regarding `Cc1ccccc1NC(=O)CSc1ccncc1`, the AC50 under setting [1] was 35.5 µM [falling, single point].

As for `C[C@H](CCC(=O)O)[C@H]1CC[C@H]2[C@@H]3CC[C@@H]4C[C@H](O)CC[C@]4(C)[C@H]3C[C@H](O)[C@]12C`, the AC50 was 0.708 µM [falling, partial curve] under setting [2] and 12.6 µM [rising, single point] under setting [1].

For the compound `Oc1c(C(c2ccccc2)N2CCCCC2)sc2ncnn12` (stereo not given), the AC50 under setting [1] was 35.5 µM [rising, single point].

On to `CCN1C(=O)C(c2ccc(O)cc2)(c2ccc(O)cc2)c2ccccc21`, for which the concentration at half-maximal activity (AC50) under setting [2] is 5.01 µM [falling, partial curve, poor fit].

As for `Cc1ccc(S(=O)(=O)N(CC(=O)O)Cc2ccccc2)cc1`, the half-maximal activity concentration (AC50) is 12.6 µM [falling, partial curve, poor fit] under setting [2] and 10 µM [falling, partial curve] under setting [1].

As for `C=CCc1ccc(OCCCCNC2CCCC2)c(OC)c1`, the AC50 under setting [1] is 3.98 µM [rising, partial curve, poor fit].

In the case of `Cc1ccnc(NC(=O)C23CC4CC(CC(C4)C2)C3)c1`, the concentration at half-maximal activity (AC50) under setting [1] is 20 µM [rising, partial curve].

In the case of `Nc1nc(-c2ccccc2)nc2sc3c(c12)CCCC3`, the concentration at half-maximal activity (AC50) under setting [1] is 20 µM [rising, single point].

As for `Nc1ccc2cc3ccc(N)cc3nc2c1`, the AC50 by setting is: under setting [2], 5.01 µM [rising, single point]; under setting [1], 12.6 µM [falling, partial curve, poor fit].

With `Cc1nc2ccccc2c2nc3ccccc3n12`, the half-maximal activity concentration (AC50) under setting [1] was 10 µM [rising, single point].

With `Cc1cccc(CNc2ncncc2-c2ccccc2Cl)c1`, the concentration at half-maximal activity (AC50) under setting [2] is 35.5 µM [falling, single point].

For the compound `CCOc1ccc(Br)cc1C1C(C(=O)OC)=C(N)Oc2cc(N(C)C)ccc21` (stereo not given), the AC50 under setting [2] is 28.2 µM [falling, single point] and the AC50 under setting [1] is 11.2 µM [falling, partial curve].

For `CCC1CN(C(=O)Nc2cccc3c2CCCC3)c2ccccc2O1` (stereo not given), under setting [2], the AC50 is 3.98 µM [rising, single point].

On to `Cc1nnc(NC(=O)CSc2ccc3nnc(-c4cccnc4)n3n2)s1`, for which the concentration at half-maximal activity (AC50) by setting is: under setting [2], 0.562 µM [falling, full curve]; under setting [1], 0.891 µM [falling, full curve, poor fit].

In the case of `CCCCC1CCC(/C(N)=N/O)CC1` (stereo not given), the AC50 is 22.4 µM [rising, single point] under setting [2] and 35.5 µM [rising, single point] under setting [1].

Regarding `CC1(CCc2ccccc2)NC(=O)N(CC(=O)Nc2ccc(S(N)(=O)=O)cc2)C1=O` (stereo not given), the concentration at half-maximal activity (AC50) under setting [1] is 11.2 µM [rising, partial curve].

For the compound `O=C(c1cccs1)N(c1ccc(F)cc1)C1C=CS(=O)(=O)C1` (stereo not given), the AC50 under setting [1] is 17.8 µM [falling, partial curve, poor fit].

In the case of `CC(C(=O)Oc1ccc2c(c1)OCO2)N1C(=O)c2ccccc2C1=O` (stereo not given), the AC50 under setting [1] is 11.2 µM [rising, partial curve].

`Cn1c2[n+](c3ccc(Cl)cc3c1=O)Cc1ccccc1-2`: the AC50 runs as follows: under setting [2], 12.6 µM [falling, single point]; under setting [1], 22.4 µM [falling, single point].

On to `CC1(C)Cc2ccccc2C(NNC(=O)c2ccccn2)=N1`, for which, under setting [1], the AC50 was 12.6 µM [rising, single point].

In the case of `CCOC(=O)c1[nH]c2c(c1-c1ccccc1)C(=O)CC(c1ccc(OC)c(OC)c1)C2` (stereo not given), under setting [1], the AC50 is 14.1 µM [rising, partial curve].

Take `CCOC(=O)c1c(C)c(C(=O)NCc2ccccn2)c(C)n1C`: the concentration at half-maximal activity (AC50) under setting [1] was 0.112 µM [falling, partial curve, poor fit].

For the compound `CCC(Sc1nc2ccccc2c2nc(-c3ccccc3)nn12)C(=O)Nc1cccc(OC)c1` (stereo not given), the AC50 is 0.112 µM [rising, full curve, poor fit] under setting [2] and 0.158 µM [rising, full curve, poor fit] under setting [1].

Regarding `Cc1occc1-c1nnc(SCC(=O)Nc2nc(C(C)(C)C)cs2)o1`, under setting [1], the AC50 was 10 µM [rising, partial curve].

Regarding `O=C(NCCOc1ccccc1)c1cc(C(=O)NCCOc2ccccc2)cc([N+](=O)[O-])c1`, the AC50 was 12.6 µM [rising, single point] under setting [2] and 22.4 µM [rising, single point] under setting [1].

Consider `O=C(Nc1nccs1)c1ccc(COc2ccc(F)cc2)o1`, for which the AC50 under setting [2] was 20 µM [rising, partial curve].

On to `Cc1ccc(-n2c(O)c(C=Nc3cc(C)on3)c3ccccc3c2=O)c(C)c1`, for which the AC50 under setting [1] was 12.6 µM [rising, partial curve].

With `COC(=O)C(C)Sc1ccc2nnc(CCNS(=O)(=O)c3ccccc3)n2n1` (stereo not given), the AC50 under setting [2] was 14.1 µM [falling, single point].

`O=C(Nc1cccc(Cl)c1)c1ccc(F)c(S(=O)(=O)N2CCC3(CC2)OCCO3)c1`: under setting [1], the AC50 is 11.2 µM [falling, partial curve].

`Cc1ccc(S(=O)(=O)c2c(C)nn(C(C)(C)C)c2OC(=O)c2cccs2)cc1`: the concentration at half-maximal activity (AC50) by setting is: under setting [2], 35.5 µM [falling, single point]; under setting [1], 25.1 µM [falling, single point].

On to `O=C(Nc1ccc(F)cc1F)c1cc2nc(-c3ccco3)cc(C(F)(F)Cl)n2n1`, for which the concentration at half-maximal activity (AC50) by setting is: under setting [2], 0.1 µM [falling, full curve]; under setting [1], 0.1 µM [falling, full curve, poor fit].

On to `CC1=NN(C(=O)Cn2ccc([N+](=O)[O-])n2)C(O)(C(F)(F)F)C1` (stereo not given), for which, under setting [2], the AC50 is 14.1 µM [rising, single point].

Regarding `CCn1c(CCNC(=O)c2ccc(OC)cc2)nnc1SCc1ccc(Cl)cc1Cl`, the concentration at half-maximal activity (AC50) under setting [1] is 12.6 µM [rising, single point].

Take `O=C(C1CCN(CCCc2ccccc2)CC1)N(CCc1ccccc1)Cc1ccccc1`: the half-maximal activity concentration (AC50) runs as follows: under setting [2], 11.2 µM [rising, partial curve]; under setting [1], 20 µM [rising, single point].

In the case of `CCCCn1c(N)c(C(=S)NC(=O)CC(C)(C)C)c(=O)n(C)c1=O`, under setting [1], the AC50 is 35.5 µM [rising, single point].

In the case of `O=S(=O)(NCCc1csc2nc(-c3ccccc3)nn12)c1ccc(Cl)s1`, the AC50 is 2 µM [falling, partial curve, poor fit] under setting [2] and 0.501 µM [falling, full curve, poor fit] under setting [1].

`CCCCCCSc1nsc(NC(C)=O)n1`: the AC50 by setting is: under setting [2], 12.6 µM [rising, partial curve]; under setting [1], 25.1 µM [rising, single point].

For `CCc1ccc(-c2cc(C(=O)N3N=C(C(F)F)CC3(O)C(F)F)c3ccccc3n2)cc1` (stereo not given), the concentration at half-maximal activity (AC50) under setting [1] was 10 µM [rising, partial curve, poor fit].

Consider `Cc1ccc(S(=O)(=O)N(C)C)cc1NC(=S)NC(C)CCCC(C)C` (stereo not given), for which the AC50 was 10 µM [rising, partial curve] under setting [2] and 15.8 µM [rising, partial curve] under setting [1].

As a reminder, the AC50 is the midpoint of the concentration-response curve, whichever way the signal moves.
